# The supplement of paper PMC10849652
# Chains of the proteins cited; added tags and fusions are not shown. Lines headed by an entry give the natural chain unless they say otherwise; changes in a name come on top.
# UniProt Q9UPN7: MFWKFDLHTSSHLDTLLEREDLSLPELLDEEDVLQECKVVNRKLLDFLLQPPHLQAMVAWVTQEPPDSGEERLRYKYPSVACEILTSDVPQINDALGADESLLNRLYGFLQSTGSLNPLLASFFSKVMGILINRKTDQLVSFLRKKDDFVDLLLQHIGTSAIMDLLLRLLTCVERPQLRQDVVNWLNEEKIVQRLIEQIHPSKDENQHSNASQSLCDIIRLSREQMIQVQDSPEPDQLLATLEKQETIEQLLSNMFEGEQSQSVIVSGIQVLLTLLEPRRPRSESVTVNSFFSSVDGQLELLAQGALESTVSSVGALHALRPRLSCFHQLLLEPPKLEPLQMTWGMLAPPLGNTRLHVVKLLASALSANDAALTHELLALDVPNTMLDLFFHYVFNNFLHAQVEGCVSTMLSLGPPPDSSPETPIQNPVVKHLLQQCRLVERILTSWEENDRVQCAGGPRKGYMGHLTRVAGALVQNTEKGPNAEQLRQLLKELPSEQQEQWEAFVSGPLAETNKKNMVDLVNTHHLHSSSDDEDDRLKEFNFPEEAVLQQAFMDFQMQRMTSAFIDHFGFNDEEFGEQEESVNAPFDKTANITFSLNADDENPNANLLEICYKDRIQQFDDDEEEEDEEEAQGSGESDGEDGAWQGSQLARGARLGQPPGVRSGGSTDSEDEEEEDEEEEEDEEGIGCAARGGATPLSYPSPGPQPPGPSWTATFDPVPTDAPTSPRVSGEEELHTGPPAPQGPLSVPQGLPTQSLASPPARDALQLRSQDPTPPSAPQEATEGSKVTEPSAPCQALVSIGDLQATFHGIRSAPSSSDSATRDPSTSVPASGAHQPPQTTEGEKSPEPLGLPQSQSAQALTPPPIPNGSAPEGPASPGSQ
# UniProt Q9BZL6: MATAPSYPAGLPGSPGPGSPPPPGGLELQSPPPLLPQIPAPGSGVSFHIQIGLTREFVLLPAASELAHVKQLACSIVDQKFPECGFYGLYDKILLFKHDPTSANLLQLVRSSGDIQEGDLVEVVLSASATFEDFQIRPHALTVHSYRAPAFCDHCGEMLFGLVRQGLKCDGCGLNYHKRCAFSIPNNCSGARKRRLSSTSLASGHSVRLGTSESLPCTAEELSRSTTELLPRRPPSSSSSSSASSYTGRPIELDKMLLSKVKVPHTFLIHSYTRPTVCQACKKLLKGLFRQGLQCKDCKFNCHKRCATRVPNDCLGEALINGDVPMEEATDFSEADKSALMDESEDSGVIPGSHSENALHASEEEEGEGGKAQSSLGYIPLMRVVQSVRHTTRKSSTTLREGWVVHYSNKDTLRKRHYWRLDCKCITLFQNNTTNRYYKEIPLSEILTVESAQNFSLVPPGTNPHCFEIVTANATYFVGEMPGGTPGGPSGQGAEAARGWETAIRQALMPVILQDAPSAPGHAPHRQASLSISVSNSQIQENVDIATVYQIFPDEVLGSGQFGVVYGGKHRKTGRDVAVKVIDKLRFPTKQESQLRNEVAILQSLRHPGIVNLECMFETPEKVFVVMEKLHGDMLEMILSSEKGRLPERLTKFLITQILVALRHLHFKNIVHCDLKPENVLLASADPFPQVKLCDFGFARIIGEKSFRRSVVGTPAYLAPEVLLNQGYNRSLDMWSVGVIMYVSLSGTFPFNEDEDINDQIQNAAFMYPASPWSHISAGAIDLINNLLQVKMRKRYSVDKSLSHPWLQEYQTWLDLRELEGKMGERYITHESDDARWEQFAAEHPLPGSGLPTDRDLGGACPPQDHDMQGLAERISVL
# UniProt P78395, whole entry, looked up: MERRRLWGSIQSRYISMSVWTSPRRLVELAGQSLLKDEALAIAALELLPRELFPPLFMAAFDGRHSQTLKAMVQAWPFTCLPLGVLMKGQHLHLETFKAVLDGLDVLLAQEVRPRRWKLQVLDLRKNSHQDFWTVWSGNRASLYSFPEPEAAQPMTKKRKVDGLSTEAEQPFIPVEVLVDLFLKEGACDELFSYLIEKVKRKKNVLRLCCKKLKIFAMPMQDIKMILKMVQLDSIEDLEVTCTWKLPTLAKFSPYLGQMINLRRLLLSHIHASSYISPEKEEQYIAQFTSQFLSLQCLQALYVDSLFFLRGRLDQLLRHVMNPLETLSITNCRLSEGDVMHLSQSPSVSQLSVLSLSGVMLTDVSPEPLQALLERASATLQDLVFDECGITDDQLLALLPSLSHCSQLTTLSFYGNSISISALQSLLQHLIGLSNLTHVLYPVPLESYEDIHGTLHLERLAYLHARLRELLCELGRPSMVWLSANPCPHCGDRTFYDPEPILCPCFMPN
# UniProt P30041: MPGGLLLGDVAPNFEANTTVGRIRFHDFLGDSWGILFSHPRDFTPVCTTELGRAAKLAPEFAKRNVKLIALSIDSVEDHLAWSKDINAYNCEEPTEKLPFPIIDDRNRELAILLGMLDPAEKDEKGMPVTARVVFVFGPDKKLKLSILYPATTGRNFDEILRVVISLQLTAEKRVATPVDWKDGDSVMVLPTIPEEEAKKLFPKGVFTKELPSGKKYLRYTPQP
# UniProt Q6PFW1: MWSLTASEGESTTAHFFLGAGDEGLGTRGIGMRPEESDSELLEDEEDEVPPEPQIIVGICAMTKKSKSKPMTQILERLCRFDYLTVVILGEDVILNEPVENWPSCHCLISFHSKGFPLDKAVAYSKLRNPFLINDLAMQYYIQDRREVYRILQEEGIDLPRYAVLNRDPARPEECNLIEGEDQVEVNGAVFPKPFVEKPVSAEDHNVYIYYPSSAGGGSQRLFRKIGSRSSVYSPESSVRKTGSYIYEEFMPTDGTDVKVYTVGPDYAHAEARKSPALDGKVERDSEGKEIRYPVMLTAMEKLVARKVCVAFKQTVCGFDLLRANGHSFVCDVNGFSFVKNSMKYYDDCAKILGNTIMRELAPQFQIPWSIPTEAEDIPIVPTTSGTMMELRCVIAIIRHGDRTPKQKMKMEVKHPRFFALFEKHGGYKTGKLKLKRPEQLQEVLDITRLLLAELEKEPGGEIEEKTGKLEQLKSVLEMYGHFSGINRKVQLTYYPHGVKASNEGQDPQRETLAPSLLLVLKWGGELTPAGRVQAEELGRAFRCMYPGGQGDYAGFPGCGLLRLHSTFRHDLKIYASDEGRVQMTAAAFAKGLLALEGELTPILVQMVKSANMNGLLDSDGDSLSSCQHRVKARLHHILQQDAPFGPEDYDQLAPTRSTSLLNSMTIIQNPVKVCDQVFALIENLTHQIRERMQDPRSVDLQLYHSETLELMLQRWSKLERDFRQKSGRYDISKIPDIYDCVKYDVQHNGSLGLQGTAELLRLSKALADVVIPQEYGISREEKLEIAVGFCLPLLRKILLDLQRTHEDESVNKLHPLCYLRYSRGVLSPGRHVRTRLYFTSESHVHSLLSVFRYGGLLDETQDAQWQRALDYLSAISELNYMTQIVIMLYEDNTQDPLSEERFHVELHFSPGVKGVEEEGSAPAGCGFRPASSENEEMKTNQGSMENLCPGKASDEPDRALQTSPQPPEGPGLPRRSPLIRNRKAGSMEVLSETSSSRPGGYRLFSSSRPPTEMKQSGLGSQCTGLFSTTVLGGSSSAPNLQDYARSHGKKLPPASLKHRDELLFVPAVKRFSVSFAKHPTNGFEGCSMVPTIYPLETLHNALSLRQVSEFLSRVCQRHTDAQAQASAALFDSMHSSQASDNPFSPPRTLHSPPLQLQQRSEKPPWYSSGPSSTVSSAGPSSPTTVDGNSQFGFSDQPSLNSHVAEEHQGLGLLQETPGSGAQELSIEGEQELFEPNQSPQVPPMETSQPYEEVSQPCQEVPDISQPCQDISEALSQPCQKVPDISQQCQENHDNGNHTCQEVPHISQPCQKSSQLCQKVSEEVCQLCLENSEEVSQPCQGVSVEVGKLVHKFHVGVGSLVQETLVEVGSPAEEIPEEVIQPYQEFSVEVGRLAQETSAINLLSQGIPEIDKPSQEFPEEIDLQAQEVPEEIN
# UniProt Q13162: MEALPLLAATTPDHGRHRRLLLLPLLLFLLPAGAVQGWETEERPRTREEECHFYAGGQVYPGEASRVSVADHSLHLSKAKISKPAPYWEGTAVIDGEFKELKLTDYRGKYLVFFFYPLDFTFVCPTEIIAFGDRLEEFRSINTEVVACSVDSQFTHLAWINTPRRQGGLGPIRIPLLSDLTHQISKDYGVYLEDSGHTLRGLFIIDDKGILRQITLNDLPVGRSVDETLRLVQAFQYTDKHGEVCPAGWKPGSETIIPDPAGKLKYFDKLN
# UniProt P48454, whole entry, looked up: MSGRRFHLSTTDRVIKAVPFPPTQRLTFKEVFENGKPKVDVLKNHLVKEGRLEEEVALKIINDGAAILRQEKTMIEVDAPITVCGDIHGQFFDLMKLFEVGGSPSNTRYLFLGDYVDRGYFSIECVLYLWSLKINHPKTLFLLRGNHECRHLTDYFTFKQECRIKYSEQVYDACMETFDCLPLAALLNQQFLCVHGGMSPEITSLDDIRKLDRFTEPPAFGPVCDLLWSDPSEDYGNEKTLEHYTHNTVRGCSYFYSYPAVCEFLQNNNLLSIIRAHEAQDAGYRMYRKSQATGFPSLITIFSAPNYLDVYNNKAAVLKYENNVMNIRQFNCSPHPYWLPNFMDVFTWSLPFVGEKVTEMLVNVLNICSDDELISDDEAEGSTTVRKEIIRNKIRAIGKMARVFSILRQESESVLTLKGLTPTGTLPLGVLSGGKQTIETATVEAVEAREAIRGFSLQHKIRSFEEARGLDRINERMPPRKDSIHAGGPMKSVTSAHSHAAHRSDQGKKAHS
# UniProt Q9UGJ0: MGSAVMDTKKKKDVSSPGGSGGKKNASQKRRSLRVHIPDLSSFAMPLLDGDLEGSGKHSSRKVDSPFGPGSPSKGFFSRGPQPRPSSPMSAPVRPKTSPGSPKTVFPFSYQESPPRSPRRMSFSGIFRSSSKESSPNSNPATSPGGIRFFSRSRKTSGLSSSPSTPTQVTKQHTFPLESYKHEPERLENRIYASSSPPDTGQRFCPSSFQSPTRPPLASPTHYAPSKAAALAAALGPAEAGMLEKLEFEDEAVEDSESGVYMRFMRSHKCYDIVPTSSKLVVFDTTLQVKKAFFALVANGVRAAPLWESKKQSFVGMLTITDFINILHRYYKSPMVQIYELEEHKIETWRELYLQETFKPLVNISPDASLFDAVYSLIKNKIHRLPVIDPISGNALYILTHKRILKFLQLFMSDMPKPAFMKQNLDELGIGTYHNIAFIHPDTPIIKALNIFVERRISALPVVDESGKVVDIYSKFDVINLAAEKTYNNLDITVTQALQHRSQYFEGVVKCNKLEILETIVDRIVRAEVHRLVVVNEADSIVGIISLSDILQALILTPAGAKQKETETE
# UniProt Q13427: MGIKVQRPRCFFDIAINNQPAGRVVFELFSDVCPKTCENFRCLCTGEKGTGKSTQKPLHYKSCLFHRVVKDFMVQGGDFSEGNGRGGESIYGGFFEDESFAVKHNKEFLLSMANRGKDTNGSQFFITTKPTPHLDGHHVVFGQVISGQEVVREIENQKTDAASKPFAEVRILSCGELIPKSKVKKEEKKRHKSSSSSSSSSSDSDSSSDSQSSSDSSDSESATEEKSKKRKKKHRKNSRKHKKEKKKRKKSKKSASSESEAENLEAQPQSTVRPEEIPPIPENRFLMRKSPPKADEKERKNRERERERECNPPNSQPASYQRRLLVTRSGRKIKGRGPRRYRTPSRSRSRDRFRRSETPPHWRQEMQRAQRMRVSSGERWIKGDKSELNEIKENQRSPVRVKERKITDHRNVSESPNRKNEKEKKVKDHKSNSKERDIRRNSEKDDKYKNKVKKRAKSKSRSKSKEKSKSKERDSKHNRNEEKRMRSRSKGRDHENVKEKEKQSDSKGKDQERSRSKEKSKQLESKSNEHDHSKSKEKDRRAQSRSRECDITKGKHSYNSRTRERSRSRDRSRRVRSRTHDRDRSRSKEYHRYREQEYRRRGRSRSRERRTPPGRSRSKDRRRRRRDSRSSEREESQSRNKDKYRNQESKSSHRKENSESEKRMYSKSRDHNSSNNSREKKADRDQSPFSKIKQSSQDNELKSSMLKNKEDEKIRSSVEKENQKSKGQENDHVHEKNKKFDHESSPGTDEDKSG
# UniProt O60678: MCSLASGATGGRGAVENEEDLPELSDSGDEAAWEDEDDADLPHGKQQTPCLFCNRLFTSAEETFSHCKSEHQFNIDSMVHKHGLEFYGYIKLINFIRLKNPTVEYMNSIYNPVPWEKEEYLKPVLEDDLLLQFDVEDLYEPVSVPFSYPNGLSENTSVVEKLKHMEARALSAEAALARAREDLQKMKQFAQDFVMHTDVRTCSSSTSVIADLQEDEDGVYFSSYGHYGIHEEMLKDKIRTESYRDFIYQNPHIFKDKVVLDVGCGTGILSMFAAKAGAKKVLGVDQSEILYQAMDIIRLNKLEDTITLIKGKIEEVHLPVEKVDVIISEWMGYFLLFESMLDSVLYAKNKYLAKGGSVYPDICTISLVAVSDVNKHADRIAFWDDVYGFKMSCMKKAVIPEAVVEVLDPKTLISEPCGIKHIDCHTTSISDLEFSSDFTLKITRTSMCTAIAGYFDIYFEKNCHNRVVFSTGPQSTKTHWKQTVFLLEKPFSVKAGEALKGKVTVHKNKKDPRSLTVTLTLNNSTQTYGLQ
# The list shows a part of the results.
# Tests used:
# Assay in all cases: log2 fold change, soluble protein after heating vs DMSO (PISA); higher = thermal stabilisation; K562 lysate, 10 uM; active = over 0.2 and 3.5 SD of the protein, either way, in both replicates (recomputed)
# nilotinib = compound: Cc1cn(-c2cc(NC(=O)c3ccc(C)c(Nc4nccc(-c5cccnc5)n4)c3)cc(C(F)(F)F)c2)cn1 [nilotinib]
# In short: (§1)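 Pellets of K562 cells were dounce-homogenised in PBS pH 7.4 with 1 mM MgCl2, and the crude extract was held at 1 mg/mL protein for a 30 min treatment with 10 μM compound. Aliquots were heated for 3 min over 48°C-58°C and pooled before NP-40 was added to 0.5% at 4°C. The supernatant from 21,000xg for 90 min was quantified by TMTpro 16plex LC-MS/MS with channel sums equalised. Values are reported from duplicates as log-two fold change in thermal stability relative to solvent controls.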
# [1] = compound: Cc1nc(Nc2n[nH]c3c2CN(C(=O)N[C@H](CN(C)C)c2ccccc2)C3(C)C)c2sccc2n1
# In short: as §1
# dasatinib = compound: Cc1nc(Nc2ncc(C(=O)Nc3c(C)cccc3Cl)s2)cc(N2CCN(CCO)CC2)n1 [dasatinib]
# In short: as §1
# [2] = compound: Cc1ncc(-c2ccnc(Nc3ccc(S(C)(=O)=O)cc3)n2)n1C(C)C
# In short: as §1
# [3] = compound: Cn1cc(-c2ccc3c(c2)CCN3C(=O)Cc2cccc(C(F)(F)F)c2)c2c(N)ncnc21
# In short: as §1
# quisinostat = compound: Cn1cc(CNCC2CCN(c3ncc(C(=O)NO)cn3)CC2)c2ccccc21 [quisinostat]
# In short: as §1
# tipifarnib = compound: Cn1cncc1[C@@](N)(c1ccc(Cl)cc1)c1ccc2c(c1)c(-c1cccc(Cl)c1)cc(=O)n2C [tipifarnib]
# In short: as §1
# [4] = compound: NC(=O)Nc1cc(-c2cccc(F)c2)sc1C(=O)N[C@H]1CCCNC1
# In short: as §1
# [5] = compound: NC(=O)c1cnc(N[C@@H]2CCCC[C@@H]2N)nc1Nc1cccc(-n2nccn2)c1
# In short: as §1
# [6] = compound: NC1(c2ccc(-c3nc4ccn5c(=O)[nH]nc5c4cc3-c3ccccc3)cc2)CCC1
# In short: as §1
# [7] = compound: NCC(=O)Nc1ccc(-n2nc(C(F)(F)F)cc2-c2ccc3c(ccc4ccccc43)c2)cc1
# In short: as §1
# vorinostat = compound: O=C(CCCCCCC(=O)Nc1ccccc1)NO [vorinostat]
# In short: as §1
# silmitasertib = compound: O=C(O)c1ccc2c(c1)nc(Nc1cccc(Cl)c1)c1ccncc12 [silmitasertib]
# In short: as §1
# [8] = compound: O=C1NC(=O)C(c2cnc3ccccn23)=C1c1cn2c3c(cc(F)cc13)CN(C(=O)N1CCCCC1)CC2
# In short: as §1
# entospletinib = compound: c1cn2cc(-c3ccc4cn[nH]c4c3)nc(Nc3ccc(N4CCOCC4)cc3)c2n1 [entospletinib]
# In short: as §1
Target,log2 fold change (nilotinib),log2 fold change [1],log2 fold change (dasatinib),log2 fold change [2],log2 fold change [3],log2 fold change (quisinostat),log2 fold change (tipifarnib),log2 fold change [4],log2 fold change [5],log2 fold change [6],log2 fold change [7],log2 fold change (vorinostat),log2 fold change (silmitasertib),log2 fold change [8],log2 fold change (entospletinib)
PPP3CA isoform 2 (UniProt Q08209),active: 0.241,inactive: 0.121,inactive: 0.027,inactive: -0.082,inactive: -0.03,inactive: -0.051,inactive: 0.037,inactive: 0.048,inactive: -0.005,inactive: -0.002,inactive: 0.006,inactive: 0.042,inactive: 0.014,inactive: -0.025,inactive: 0.066
PPP6R1 (UniProt Q9UPN7),inactive: 0.009,inactive: 0.012,inactive: -0.014,inactive: -0.018,inactive: 0.023,inactive: -0.011,inactive: -0.007,inactive: 0.045,inactive: 0.005,inactive: -0.009,inactive: -0.01,inactive: -0.117,inactive: 0.057,inactive: -0.004,inactive: 0.045
PRKD2 isoform 3 (UniProt Q9BZL6),inactive: 0.079,inactive: -0.229,inactive: 0.028,inactive: -0.054,inactive: 0.04,inactive: -0.046,inactive: 0.069,inactive: -0.115,inactive: 0.06,inactive: -0.01,inactive: -0.043,active: -0.326,inactive: 0.051,inactive: 0.088,inactive: 0.052
PPP1CB (UniProt P62140),inactive: 0.007,inactive: -0.074,inactive: 0.02,inactive: -0.02,inactive: -0.025,inactive: 0.012,inactive: 0.038,inactive: 0.012,inactive: -0.032,inactive: 0.008,inactive: -0.041,inactive: -0.056,inactive: -0.001,inactive: -0.046,inactive: 0.002
PRAME (UniProt P78395),inactive: 0.028,inactive: 0.005,inactive: -0.004,inactive: 0.001,inactive: -0.017,inactive: -0.081,inactive: -0.007,inactive: 0.053,inactive: -0.01,inactive: -0.006,inactive: 0.025,active: -0.283,inactive: 0.043,inactive: 0.004,inactive: 0.048
PRKACB isoform 2 (UniProt P22694),inactive: -0.076,active: 0.818,inactive: 0.025,inactive: 0.091,inactive: -0.028,inactive: -0.033,inactive: -0.063,active: 0.538,inactive: 0.177,inactive: -0.025,inactive: -0.014,inactive: -0.018,inactive: 0.054,inactive: 0.002,inactive: 0.042
PPP1R12C isoform 4 (UniProt Q9BZL4),inactive: 0.001,inactive: -0.046,inactive: -0.007,inactive: -0.051,inactive: -0.01,inactive: -0.026,inactive: -0.027,inactive: -0.008,inactive: 0.041,inactive: -0.023,inactive: 0.02,inactive: -0.13,inactive: 0.009,inactive: 0.004,inactive: -0.013
PRDX6 (UniProt P30041),inactive: 0,inactive: -0.006,inactive: 0.021,inactive: -0.007,inactive: -0.021,inactive: 0.015,inactive: 0.021,inactive: -0.008,inactive: -0.002,inactive: 0.009,inactive: -0.016,inactive: 0.077,inactive: -0.022,inactive: -0.002,inactive: -0.014
PPIP5K1 (UniProt Q6PFW1),inactive: -0.072,inactive: -0.005,inactive: -0.001,inactive: -0.053,inactive: 0.067,inactive: -0.031,inactive: 0.008,inactive: 0.094,inactive: 0.057,inactive: 0.024,inactive: 0.029,inactive: -0.119,inactive: 0,inactive: -0.023,inactive: -0.041
PRDX4 (UniProt Q13162),inactive: -0.042,inactive: 0.006,inactive: 0.01,inactive: -0.004,inactive: -0.006,inactive: -0.04,inactive: -0.013,inactive: -0.018,inactive: 0.016,inactive: 0.01,inactive: 0.027,inactive: 0.078,inactive: 0.001,inactive: -0.04,inactive: 0.025
PPP1R8 (UniProt Q12972),inactive: 0.004,inactive: -0.011,inactive: 0.03,inactive: 0.034,inactive: 0.025,inactive: -0.023,inactive: 0.013,inactive: -0.007,inactive: 0.01,inactive: -0.024,inactive: 0.02,inactive: 0.04,inactive: -0.009,inactive: -0.017,inactive: 0.025
PPP3CC (UniProt P48454),inactive: -0.003,inactive: 0.11,inactive: -0.1,inactive: -0.033,inactive: 0.016,inactive: -0.025,inactive: -0.008,inactive: -0.06,inactive: 0.053,inactive: 0.023,inactive: 0.01,inactive: -0.075,inactive: 0.004,inactive: 0.029,inactive: 0.05
PRKAG2 (UniProt Q9UGJ0),inactive: -0.118,inactive: 0.173,inactive: -0.025,inactive: 0.096,inactive: 0.082,inactive: 0.042,inactive: -0.097,inactive: 0.1,inactive: 0.06,inactive: 0.051,inactive: -0.11,inactive: -0.035,inactive: 0.216,inactive: -0.06,inactive: 0
PRKAB2 (UniProt O43741),inactive: 0.033,inactive: 0.203,inactive: -0.049,inactive: 0.106,inactive: 0.042,inactive: -0.031,inactive: -0.031,inactive: 0.14,inactive: 0.036,inactive: 0.023,inactive: -0.006,inactive: -0.009,inactive: 0.111,inactive: 0.096,inactive: 0.013
PPIG (UniProt Q13427),inactive: -0.006,inactive: 0.046,inactive: 0.005,inactive: 0.026,inactive: 0.018,inactive: -0.062,inactive: -0.018,inactive: -0.012,inactive: 0.027,inactive: 0.084,inactive: -0.197,inactive: -0.186,inactive: -0.109,inactive: 0.071,inactive: -0.038
PRMT3 (UniProt O60678),inactive: 0.012,inactive: -0.029,inactive: -0.017,inactive: -0.008,inactive: -0.052,inactive: -0.056,inactive: 0.011,inactive: 0.016,inactive: -0.006,inactive: 0.012,inactive: 0.027,inactive: -0.05,inactive: 0,inactive: -0.03,inactive: 0.024
PPL (UniProt O60437),inactive: 0.015,inactive: -0.009,inactive: 0.231,inactive: -0.041,inactive: -1.39,inactive: -1.14,inactive: 0.036,inactive: -0.088,–,–,–,–,–,inactive: -0.03,inactive: -0.039
PRKCD (UniProt Q05655),inactive: 0.002,inactive: 0.193,inactive: -0.053,inactive: 0.056,inactive: 0,inactive: 0.002,inactive: -0.013,inactive: -0.013,inactive: 0.218,inactive: 0.021,inactive: 0.008,inactive: -0.075,inactive: -0.006,inactive: -0.005,inactive: 0.019
